{
  "source": "the supplement of paper PMC10338343",
  "note": "± gives the standard deviation. The list shows a part of the results. Many entries were measured with a wide error.",
  "data": [
    {"test_system": "EfPiwi piRISC loaded with L1MC piRNA (26 nt)", "experiment": "pre-steady-state target cleavage rate (min^-1); guide: L1MC piRNA 5'p-UAACUAAAUACUAUGCAAGCUGUAGG; MIWI and MILI are mouse PIWI proteins and EfPiwi is from a freshwater sponge; tags in brackets are library labels; higher = faster piRNA-guided slicing of the target", "settings": "auxiliary factor: 500 nM Ephydatia muelleri Gtsf1", "method_in_brief": "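The method was Cleave-'n-Seq, in which uncleaved targets from a transcribed, DNA-blocked target RNA library were sequenced after exposure to active affinity-purified piRISC carrying one synthetic guide, with or without GTSF1 partner protein. Reactions contained 0.1 nM library, 1 nM piRISC and, where present, 500 nM GTSF1 in HEPES–potassium acetate buffer at 33 °C for 0–8 or 0–960 min. Reads were normalised to depth and to weakly complementary targets, three trials were pooled, and k3 was capped at 0.0001 min^-1. The pre-steady-state cleavage rate came from a burst-and-steady-state fit.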", "values": [
      {"sequence": "UCCUGGUAGAGCUUGCAUAGUAAUUAGUUA", "pre-steady-state target cleavage rate": "0.00406 ± 0.0024"},
      {"sequence": "UCCUGGAUGUCGAACGUAUCCAUUUAGUUA", "pre-steady-state target cleavage rate": "0.000149 ± 0.028"},
      {"sequence": "UCCUCCUACUAGCUUGCAUAGUAUUUAGUUA", "pre-steady-state target cleavage rate": "0.127 ± 0.035"},
      {"sequence": "UCCUGGAUGUCGAUCCAUAGAAUUUAGUUA", "pre-steady-state target cleavage rate": "0.000314 ± 0.017"},
      {"sequence": "UCCUGGAACUGCUUGCAUAGUAUUUAGUUA", "pre-steady-state target cleavage rate": "0.0203 ± 0.006"},
      {"sequence": "UCCUCCACAGCUUGCAUAGUAUUUAGUUA", "pre-steady-state target cleavage rate": "0.0564 ± 0.018"},
      {"sequence": "UCCUGGAUGUACUUGCAUAGUAUUUAGUUA", "pre-steady-state target cleavage rate": "0.00383 ± 0.0029"},
      {"sequence": "UCCUGGAUCUGCUUGCUUAGUAUUUAGUUA", "pre-steady-state target cleavage rate": "0.0931 ± 0.028"},
      {"sequence": "UCCUCCUACUGCUUGCAUAGUUUUUAGUUA", "pre-steady-state target cleavage rate": "0.0079 ± 0.0028"},
      {"sequence": "UCCUGGUACAGCUUGCAUUGUUUUUAGUUA", "pre-steady-state target cleavage rate": "0.000697 ± 0.0086"},
      {"sequence": "UCCUGGUACAGCUUGCAUACUUUUUAGUUA", "pre-steady-state target cleavage rate": "0.00064 ± 0.02"},
      {"sequence": "UCCUGGAUCAGCUUGCAUAGUAUAUUGUUA", "pre-steady-state target cleavage rate": "0.00175 ± 0.004"},
      {"sequence": "UCCUGGAUCACCUUGCUUAGUAUUUAGUUA", "pre-steady-state target cleavage rate": "0.00278 ± 0.0034"},
      {"sequence": "UCCUGCUACAGGUUGGAUAGUAUUUAGUUA", "pre-steady-state target cleavage rate": "0.00793 ± 0.0027"},
      {"sequence": "UCCUGGAUCAGCAUGCAUAGUAUUUAGUAA", "pre-steady-state target cleavage rate": "0.00497 ± 0.0029"},
      {"sequence": "UCCUGGAUGUCGUUGCACAGUAUUUAGUUA", "pre-steady-state target cleavage rate": "0.0015 ± 0.0052"},
      {"sequence": "UCCUCCUACACCAUGCAUAGUAUUUAGUUA", "pre-steady-state target cleavage rate": "0.145 ± 0.05"},
      {"sequence": "UCCUGCUACAGCUUGCAAGUAUUUAGUUA", "pre-steady-state target cleavage rate": "0.00614 ± 0.0027"},
      {"sequence": "UCCUGGAUCAGCUUGGAUAGUAUUUAGAUA", "pre-steady-state target cleavage rate": "0.00149 ± 0.0029"},
      {"sequence": "UCCUGGAUGUCGAACGUUAGUAUUAAGUUA", "pre-steady-state target cleavage rate": "0.000142 ± 0.022"},
      {"sequence": "UCCUGGAACAGCUUGCAUAGUAUUUAGUUU [g2:g23:cont:t1U]", "pre-steady-state target cleavage rate": "0.0156 ± 0.0055"},
      {"sequence": "UCCUGGAUGUGCUAGCAUAGUAUUUAGUUA", "pre-steady-state target cleavage rate": "0.00573 ± 0.0027"},
      {"sequence": "UCCUGGAUGUCGAACGUUAGAUUUAGUUA", "pre-steady-state target cleavage rate": "< 0.0001"},
      {"sequence": "UCCUGGAUCUGCUUGCAUAGUAUUUAGUAA", "pre-steady-state target cleavage rate": "0.1 ± 0.038"}
    ]}
  ]
}
